These are yes or no findings as the source states them, for the method shown. A result given as binding can be weak or reduced; the word gives no strength.

The chains behind the UniProt entries cited, without tags or fusion partners. Where a name states a change or a piece, a line headed by the entry shows the natural chain unless it says otherwise.
UniProt A3DE71: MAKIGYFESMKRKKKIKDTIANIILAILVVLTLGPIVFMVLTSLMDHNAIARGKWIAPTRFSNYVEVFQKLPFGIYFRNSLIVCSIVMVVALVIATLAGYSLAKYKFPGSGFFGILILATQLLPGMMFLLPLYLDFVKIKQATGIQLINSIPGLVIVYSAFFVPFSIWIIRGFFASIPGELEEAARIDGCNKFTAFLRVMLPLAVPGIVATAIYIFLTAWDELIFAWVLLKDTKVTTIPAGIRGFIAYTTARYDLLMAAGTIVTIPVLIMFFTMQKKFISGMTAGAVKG
UniProt A3DGK4: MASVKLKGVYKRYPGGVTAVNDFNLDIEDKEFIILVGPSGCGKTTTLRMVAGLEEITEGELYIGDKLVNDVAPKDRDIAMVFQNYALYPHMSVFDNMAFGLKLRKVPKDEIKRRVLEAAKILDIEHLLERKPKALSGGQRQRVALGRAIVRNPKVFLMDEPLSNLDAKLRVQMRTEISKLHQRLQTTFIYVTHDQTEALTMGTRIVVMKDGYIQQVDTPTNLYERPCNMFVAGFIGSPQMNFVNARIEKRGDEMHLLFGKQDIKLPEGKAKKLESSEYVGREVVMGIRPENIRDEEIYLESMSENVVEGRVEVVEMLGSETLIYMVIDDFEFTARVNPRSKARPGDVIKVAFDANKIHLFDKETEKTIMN
UniProt A3DE73: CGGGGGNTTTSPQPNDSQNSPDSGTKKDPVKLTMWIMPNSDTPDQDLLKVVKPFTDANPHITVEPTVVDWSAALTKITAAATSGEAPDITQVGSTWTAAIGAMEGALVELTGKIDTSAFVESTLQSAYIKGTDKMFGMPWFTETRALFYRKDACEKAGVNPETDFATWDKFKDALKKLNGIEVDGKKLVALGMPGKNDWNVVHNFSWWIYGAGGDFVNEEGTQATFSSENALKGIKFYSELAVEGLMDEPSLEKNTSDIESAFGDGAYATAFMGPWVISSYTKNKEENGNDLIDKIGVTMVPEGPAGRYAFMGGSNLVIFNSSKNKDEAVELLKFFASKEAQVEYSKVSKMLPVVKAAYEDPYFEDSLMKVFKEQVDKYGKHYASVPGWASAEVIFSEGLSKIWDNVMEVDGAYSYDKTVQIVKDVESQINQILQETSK

The target in assay [1] is Binding-protein-dependent transport systems inner membrane component (Cthe_1018) (Clostridium thermocellum DSM 1237 (ATCC 27405) (endogenous)) (UniProt A3DE71). Kind of assay: native gel or EMSA; two-dimensional blue native PAGE (4-15% gel) then SDS-PAGE of the membrane fraction solubilised at 4°C in 1.0% (w/v) DDM; about 40 μg protein; spots identified by MALDI-TOF/TOF; complex mass estimated from BN-PAGE markers.

Assay [2] deals with ABC transporter related protein (Cthe_1862) (Clostridium thermocellum DSM 1237 (ATCC 27405) (endogenous)) (UniProt A3DGK4). Described as above.

Consider “Solute-binding protein (Cthe_1020) (from UniProt A3DE73)”, for which the binding result in assay [1] and in assay [2] was “binds” each time.

Regarding “ABC transporter related protein (Cthe_1862) (from UniProt A3DGK4)”, in assay [1], the binding entry is reported as “binds”.

(Values after PMC3039559, “A Blue Native-PAGE analysis of membrane protein complexes in Clostridium thermocellum” (BMC Microbiology, 2011).)
